Measured values taken from patent US20220356259A1.
Results are given in words; binding and its absence hold for the method and conditions named. Some results given as binding are weak or reduced against the parent protein; the word gives no strength.

Experiments:
[1] = target: fusion protein in which the extracellular domain of human GITR is fused with EGFP, on HEK293 cells (human); experiment: flow cytometry, hybridoma supernatant on hGITR-EGFP cells, anti-mouse Ig-PE
[2] = target: fusion protein in which the extracellular domain of human GITR is fused with the domain of human IgG1-Fc (human); experiment: ELISA, hGITR-Fc coated at 2 ug/ml, hybridoma supernatant, anti-mouse IgG-HRP; clones with OD>0.8 judged positive
[3] = target: fusion protein in which the extracellular domain of human GITR is fused with EGFP, on HEK293 cells (human); experiment: flow cytometry, 10 ug/ml C3E2 on hGITR-EGFP HEK293 cells, anti-human Ig-PE

B1: isolated antigen-binding protein 3E2 (mouse hybridoma monoclone) (antibody, V domains shown)
VH: QVQLQESGPGILQPSQTLSLTCSFSGFSLSTFGMGVGWIRQPSGKGLEWLVLILWNDIKYYNPALKSLLTVSKDTSNNQVFLKIASVDTADTATYYCARVDGYYGYFDVWGTGTTVTVSS
VL: DIVMTQSPLSLPVSLGDQASISCRSSQTIVHSNGNTYLEWYLQKPGQSPKLLIYKVSNRFSGVPDRFSGSGSGTDFTLKISRVEAEDLGVYYCFQGSHVPWTFGGGTKLEIK
[1]
  binding: binds
[2]
  binding: binds

B2: isolated antigen-binding protein C3E2 (antibody, human IgG1, kappa, V domains shown)
VH: QVQLQESGPGILQPSQTLSLTCSFSGFSLSTFGMGVGWIRQPSGKGLEWLVLILWNDIKYYNPALKSLLTVSKDTSNNQVFLKIASVDTADTATYYCARVDGYYGYFDVWGTGTTVTVSS
VL: DIVMTQSPLSLPVSLGDQASISCRSSQTIVHSNGNTYLEWYLQKPGQSPKLLIYKVSNRFSGVPDRFSGSGSGTDFTLKISRVEAEDLGVYYCFQGSHVPWTFGGGTKLEIKR
[3]
  binding: binds
